The nature of this data set: Pharmacokinetic test. The following applies: rat, in vivo, 20 mg/kg, PO, SD rats (male).

For one molecule, Cmax and Tmax results are on record in patent US5776944A, “7-(4-aminomethyl-3-methyloxyiminopyrroplidin-1-yl)-1-cyclopropyl-6-flu oro-4-oxo-1,4-dihydro-1,8-naphthyridine-3-carboxylic acid and the process for the preparation thereof” (LG Chemical Ltd., priority 1994, dated 1998).

As for `O=C(O)c1cn(C2CC2)c2cc(N3CCNCC3)c(F)cc2c1=O` [CFLX, ciprofloxacin, reference compound], for the setting “read-out: Cmax (maximum blood concentration)”, the Cmax turned out to be 1.34 ± 0.368 µg/mL. The Tmax (read-out: Tmax (time showing maximum blood concentration)) is 1.13 ± 0.605 h.
